Source: patent publication US20240025969A1, “NPC1 MONOBODIES AND MONOBODY CONJUGATES THEREOF” (NEW YORK UNIVERSITY, priority 2020, published 2024)
At least one compound was matched to its structure with a doubt left.

Test system: DLD-1 cancer cell
Assay: DLD-1 cancer cell proliferation, Syto60 assay
Assay type: cell-based
Details: mutant KRas CRC cells (DLD-1); Syto60 assay after 3 days of treatment; n=3

Structure (SMILES): CCC(C)n1ncn(-c2ccc(N3CCN(c4ccc(OCC5COC(Cn6cncn6)(c6ccc(Cl)cc6Cl)O5)cc4)CC3)cc2)c1=O (stereo not shown) [itraconazole]
- cell proliferation: dose-dependent inhibition of cell proliferation
